Results reported in PMC7807754, “A novel protein encoded by circular SMO RNA is essential for Hedgehog signaling activation and glioblastoma tumorigenicity” (Genome Biology, 2021).
Results are given in words; binding and its absence hold for the method and conditions named. Binding seen in cells or lysates may run through a third protein. Some binding calls cover weakened binding; strength is not graded here.

Target: smoothened (SMO) (human (endogenous in 456 and 3691 CSCs)) (UniProt Q99835)
Assay: co-IP; in vivo IP between endogenous SMO and SMO-193a.a. in 456 and 3691 CSCs; co-IP soft RIPA lysis buffer, primary antibody at 4 °C overnight, protein A/G agarose, Western blotting

binding: binds
B1: GFP-SMO-193a.a. (natural protein, human)
chain: MHSYIAAFGAVTGLCTLFTLATFVADWRNSNRYPAVILFYVNACFFVGSIGWLAQFMDGARREIVCRADGTMRLGEPTSNETLSCVIIFVIVYYALMAGVVWFVVLTYAWHTSFKALGTTYQPLSGKTSYFHLLTWSLPFVLTVAILAVAQVDGDSVSGICFVGYKNYRYRAGFVLAPIGLVLIVGGYFLIRE
notes: SMO (smoothened), human, amino acids 230-421; the open reading frame of circ-SMO; extra Glu at the C-terminal, not part of linear SMO; The plasmid for the GFP-tagged protein is not described; source: 293T, transfected, purified (anti-GFP antibody, Catch and Release v2.0 Reversible Immunoprecipitation System)
